Test results taken from EP2163616A2.
Results are given in words; binding and its absence hold for the method and conditions named. Some results given as binding are weak or reduced against the parent protein; the word gives no strength.

Biological target: T1, Subtilase JP170 (Bacillus sp. JP170)
T1 sequence: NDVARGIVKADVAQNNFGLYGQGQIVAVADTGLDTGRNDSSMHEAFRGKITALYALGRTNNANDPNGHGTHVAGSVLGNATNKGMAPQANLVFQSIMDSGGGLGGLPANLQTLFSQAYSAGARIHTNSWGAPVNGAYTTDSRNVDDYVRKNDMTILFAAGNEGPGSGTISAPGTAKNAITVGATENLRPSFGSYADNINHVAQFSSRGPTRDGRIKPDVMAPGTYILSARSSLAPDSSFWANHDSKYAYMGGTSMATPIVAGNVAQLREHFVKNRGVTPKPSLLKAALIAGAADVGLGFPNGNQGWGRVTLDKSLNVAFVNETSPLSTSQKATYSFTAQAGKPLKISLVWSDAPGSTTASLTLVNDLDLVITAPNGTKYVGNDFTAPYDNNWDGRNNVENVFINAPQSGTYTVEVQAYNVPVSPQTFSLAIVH
Test: X-ray crystal structure of the complex

binding: binds
B1: Cl2 inhibitor (protein, UniProt P01053 2-84, looked up)
chain: SSVEKKPEGVNTGAGDRHNLKTEWPELVGKSVEEAKKVILQDKPEAQIIVLPVGTIVTMEYRIDRVRLFVDKLDNIAQVPRVG
